From paper PMC12431657, “Discovery and mechanistic insights of dibenzoylmethane as a broad spectrum inhibitor of coronavirus” (PLOS Pathogens, 2025)
Structures can show the parent of a compound that is named as a salt. Where two headings read alike, the source gives them in different places. The campaign covered roughly 3,300 compounds. About 95 (3%) showed an effect of 50% or more. Some of the results follow.

Test system: HCoV-229E
Parameters: species or system Huh-7; HTS, protection from HCoV-229E induced cell death, luminescent cell viability (CellCounting-Lite 2.0), inhibition rate
Conditions: 24 h post infection, 1 h compound pre-incubation, 10 µM, inhibitor

Row | SMILES | 229E Inhibition rate [%] | 229E Inhibition rate (229E Inhibition rate, 24 h) [%]
1 | CC(C)=CCC/C(C)=C/Cc1c(O)c(CC=C(C)C)c2c(c1O)C(=O)C1=C[C@@H]3C[C@H]4C(C)(C)O[C@@](C/C=C(/C)C(=O)O)(C3=O)[C@@]14O2 [Gambogenic acid] | 1.1 | –
2 | COc1ccc(-c2cc(=O)c3c(OC)c(OC)c(OC)cc3o2)cc1OC [Sinensetin] | 36.1 | –
3 | COc1cc2c(cc1OC)[C@H]1Cc3ccc(OC)c(OC)c3CN1CC2 [D-Tetrahydropalmatine] | 11.9 | –
4 | CC(=O)O[C@H]1CC[C@]2(C)[C@H]3CC=C4[C@@H]5[C@@H](C)[C@H](C)CC[C@]5(C(=O)O)CC[C@@]4(C)[C@]3(C)CC[C@H]2C1(C)C [Ursolic acid acetate] | 6 | –
5 | O=C(O)C[C@H](C(=O)O)[C@H]1c2c(cc(O)c(O)c2O)C(=O)O[C@@H]1C(=O)O [Chebulic acid] | 20.4 | –
6 | C[C@H](O)[C@H](O)C1=Nc2c(nc(N)[nH]c2=O)NC1 [7,8-Dihydro-L-biopterin] | 24.5 | –
7 | CC1OCCC1=O (stereo not drawn) [2-Methyltetrahydrofuran-3-one] | 9.2 | –
9 | COc1ccc2c(c1)OC[C@@H](c1cc(O)c(OC)c(OC)c1O)C2 [Colutehydroquinone] | 7.3 | –
10 | COc1ccc(-c2cc(=O)c3c(O)c(OC)c(O)cc3o2)cc1 [Pectolinarigenin] | 11.1 | –
11 | CC1(C)[C@H](C(=O)O)CC[C@]1(C)C(=O)O [(-)-Camphoric acid] | 18.8 | –
12 | COc1ccc([C@H]2O[C@@H](c3ccc(OC)c(OC)c3)[C@H](C)[C@H]2C)cc1OC [Veraguensin] | 19 | –
13 | C[S+]([O-])CC[C@H](N)C(=O)O (stereo partly drawn) [Methionine sulfoxide] | – | 10.9
14 | OC[C@H]1O[C@@](CO)(O[C@H]2O[C@H](CO)[C@@H](O)[C@H](O)[C@H]2O)[C@@H](O[C@H]2O[C@H](CO)[C@@H](O)[C@H](O)[C@H]2O)[C@@H]1O [D-(+)-Melezitose] | 7.9 | –
15 | CC(=O)O[C@@H]1C[C@@H]2CC[C@@]1(C)C2(C)C [(-)-Bornyl acetate] | 7.4 | –
16 | CC(C)[C@H](N)C(=O)O [L-Valine] | 15.3 | –
17 | O=C(O)c1ccco1 [2-Furoic acid] | 5.4 | –
18 | O=C(/C=C/C=C/c1ccc2c(c1)OCO2)N1CCCCC1 [Piperine] | 13.7 | –
19 | C[C@@H]1O[C@@H](OC[C@H]2O[C@@H](Oc3c(-c4ccc(O)cc4)oc4cc(O)cc(O)c4c3=O)[C@H](O)[C@@H](O)[C@@H]2O)[C@H](O)[C@H](O)[C@H]1O [Nicotiflorin] | 40 | –
20 | O=c1c2ccccc2nc2n1CCc1c-2[nH]c2ccccc12 [Rutaecarpine] | 28 | –
21 | C[C@H]1[C@H](C)CC[C@]2(C(=O)O)CC[C@]3(C)C(=CC[C@@H]4[C@@]5(C)CC[C@@H](O)C(C)(C)[C@@H]5CC[C@]43C)[C@H]12 [3-Epiursolic Acid] | 7.8 | –
22 | COc1cc(/C=C/c2cc(O)cc(O)c2)ccc1O [Isorhapontigenin] | 0 | –

Row | SMILES | 229E Inhibition rate [%] | 229E Inhibition rate (229E Inhibition rate, 24 h) [%]
23 | O=C(O)CCCCC1CCSS1 (stereo not drawn) [α-Lipoic Acid] | 10.7 | –
24 | CC(C)=CCC/C(C)=C/CC/C(C)=C/CC/C(C)=C/CO [Geranylgeraniol] | 25.5 | –
25 | N=C(N)NCCCCN [Agmatine (sulfate)] | 16.1 | –
26 | C[C@H](C[C@H](O)[C@H]1OC1(C)C)C1=C2C[C@H](O)[C@H]3[C@@]4(C)CCC(=O)C(C)(C)[C@@H]4CC[C@]3(C)[C@@]2(C)CC1 [Alisol B] | 18.2 | –
27 | C=C(C)[C@@H]1CC=C(C=O)CC1 [L-Perillaldehyde] | 0 | –
28 | C=C1C(=O)O[C@H]2C1CC[C@@](C)(O)C13C=CC(C)(C21)C1(C3)C(=O)O[C@@H]2C3C(C)=CCC3[C@](C)(O)[C@H](OC(C)=O)CC21 (stereo partly drawn) [Handelin] | 0 | –
29 | COc1cc(/C=C/c2ccc(OC)c(OC)c2)oc(=O)c1 [11-Methoxyyangonin] | 18.3 | –
30 | COc1cc2c(cc1O)C[C@H]1c3cc(O)c(OC)cc3CC[N+]1(C)C2 (stereo partly drawn) [Phellodendrine (chloride)] | 41.3 | –
31 | CCCCCCCCCCCCCCCCCCCCCCCC(=O)OC [Methyl tetracosanoate] | 11.5 | –
32 | CC(=O)O[C@H]1C[C@H]2CC[C@]1(C)C2(C)C [Bornyl acetate] | 0 | –
33 | CCCCCCCCCCCCCCCCCCCCCCC(=O)O [Tricosanoic acid] | 43.7 | –
34 | COc1ccc2c(C)c3[n+](cc2c1OC)CCc1cc2c(cc1-3)OCO2 [13-Methylberberine (chloride)] | 18.9 | –
35 | CC(=O)O[C@H]1C[C@@]2(C)[C@@H](C[C@@H](O)[C@H]3[C@@]4(C)CC[C@@H](O)[C@@H](C)[C@@H]4CC[C@@]32C)/C1=C(\CCC=C(C)C)C(=O)O [Fusidic acid (sodium salt)] | – | 24.6
36 | C=C[C@@H]1CNC(=S)O1 [Epigoitrin] | 34.1 | –
37 | Cc1ccc(C=O)o1 [5-Methylfurfural] | 6.8 | –
38 | C[S+]([O-])CCCC/C(=N\OS(=O)(=O)O)S[C@@H]1O[C@H](CO)[C@@H](O)[C@H](O)[C@H]1O (stereo partly drawn) [Glucoraphanin] | 11.2 | –
39 | CCCCCCCCCC(C)=O [2-Undecanone] | 19.4 | –
40 | CCCCCCCCCCCCCCCCC(=O)O [Heptadecanoic acid] | 7.8 | –
41 | COC(=O)/C=C/c1ccc(O)c(OC)c1 [Ferulic acid methyl ester] | 10.1 | –
42 | OC[C@H]1O[C@@](CO)(OC[C@@]2(OC[C@@]3(O[C@H]4O[C@H](CO)[C@@H](O)[C@H](O)[C@H]4O)O[C@H](CO)[C@@H](O)[C@@H]3O)O[C@H](CO)[C@@H](O)[C@@H]2O)[C@@H](O)[C@@H]1O [Nystose] | 0 | –
43 | C1CCN2C[C@H]3C[C@H](CN4CCCC[C@@H]34)[C@H]2C1 [(+)-Sparteine] | – | 16.6
44 | C[C@@H]1CC[C@]2(C(=O)O)CC[C@]3(C)C(=CC[C@@H]4[C@@]5(C)C[C@@H](O)[C@H](O)C(C)(C)[C@@H]5CC[C@]43C)[C@@H]2[C@]1(C)O [Tormentic acid] | 16.1 | –

Some of these compounds in order of length of the SMILES, falling.
Row | SMILES | 229E Inhibition rate [%] | 229E Inhibition rate (229E Inhibition rate, 24 h) [%]
42 | OC[C@H]1O[C@@](CO)(OC[C@@]2(OC[C@@]3(O[C@H]4O[C@H](CO)[C@@H](O)[C@H](O)[C@H]4O)O[C@H](CO)[C@@H](O)[C@@H]3O)O[C@H](CO)[C@@H](O)[C@@H]2O)[C@@H](O)[C@@H]1O [Nystose] | 0 | –
38 | C[S+]([O-])CCCC/C(=N\OS(=O)(=O)O)S[C@@H]1O[C@H](CO)[C@@H](O)[C@H](O)[C@H]1O (stereo partly drawn) [Glucoraphanin] | 11.2 | –
30 | COc1cc2c(cc1O)C[C@H]1c3cc(O)c(OC)cc3CC[N+]1(C)C2 (stereo partly drawn) [Phellodendrine (chloride)] | 41.3 | –

(list continues)

Row | SMILES | 229E Inhibition rate [%] | 229E Inhibition rate (229E Inhibition rate, 24 h) [%]
45 | Nc1ncnc2c1ncn2[C@@H]1C[C@H](CO)[C@@H](O)[C@H]1O [Aristeromycin] | 57.5 | –
46 | OC[C@H]1O[C@H](O[C@H]2[C@H](O)[C@@H](O)[C@H](O)O[C@@H]2CO)[C@H](O)[C@@H](O)[C@@H]1O [Maltose monohydrate] | – | 10
47 | CC(CN)C(=O)O (stereo not drawn) [3-Amino-2-methylpropanoic acid] | 11.3 | –
48 | CC(O)[C@H](C)[C@H](N)C(=O)O (stereo partly drawn) [4-Hydroxyisoleucine] | 38 | –
49 | CC1=C2C(=O)O[C@@H](c3ccoc3)[C@]2(C)CCC1 [Fraxinellone] | 13.5 | –
50 | CC(C)[C@@H](C)/C=C/[C@@H](C)[C@H]1CC[C@H]2C3=CC=C4C[C@@H](O)CC[C@@]4(C)[C@@H]3CC[C@]12C [Lumisterol] | 3.7 | –
51 | COc1cc(-c2oc3cc(O)cc(O)c3c(=O)c2O[C@@H]2O[C@H](CO)[C@@H](O)[C@H](O)[C@H]2O)ccc1O [Isorhamnetin-3-O-glucoside] | 11.3 | –
52 | CCC/C=C1/OC(=O)c2ccccc21 [3-Butylidenephthalide] | 14.3 | –
53 | CCOC(=O)c1ccc(O)c(O)c1 [Ethyl 3,4-dihydroxybenzoate] | 26.5 | –
54 | CN1c2c([nH]c(N)nc2=O)NC[C@@H]1CNc1ccc(C(=O)N[C@@H](CCC(=O)O)C(=O)O)cc1 [Levomefolic acid] | 12.5 | –
55 | O=c1cc(-c2ccc(O)cc2)oc2cc(O)ccc12 [7,4'-Dihydroxyflavone] | 13.2 | –
56 | CC(C)=CCC[C@](C)(O)[C@H]1CC[C@]2(C)[C@@H]1[C@H](O)C[C@@H]1[C@@]3(C)CC[C@H](O)C(C)(C)[C@@H]3[C@@H](O[C@@H]3O[C@H](CO)[C@@H](O)[C@H](O)[C@H]3O[C@@H]3O[C@H](CO)[C@@H](O)[C@H](O)[C@H]3O)C[C@]12C [Ginsenoside Rf] | 28.3 | –
57 | O[C@@H]1CCCC[C@H]1O (relative stereo) [trans-Cyclohexane-1,2-diol] | 11.9 | –
58 | CCCCCCCCCCCCCC(=O)O [Myristic acid] | 13.4 | –
59 | O=C(O)[C@H]1O[C@@H](Oc2c(O)cc(O)c3c(=O)c(O)c(-c4ccc(O)c(O)c4)oc23)[C@H](O)[C@@H](O)[C@@H]1O [Hibifolin] | 43.4 | –
60 | NC(=O)NC1NC(=O)NC1=O (stereo not drawn) [Allantoin] | 34.6 | –
61 | CC/C=C\CC1=C(C)CCC1=O [cis-Jasmone] | 17.9 | –
62 | CN1CCc2cc3c(c4c2C1Cc1ccccc1-4)OCO3 (stereo not drawn) [Roemerine] | 25.9 | –
63 | O=C(O)C=Cc1ccc(O)cc1 [p-Hydroxycinnamic acid] | 10.3 | –
64 | COc1c2ccoc2cc2oc(=O)ccc12 [Bergapten] | 15.5 | –
65 | O=c1c(O)c(-c2ccc(O)c(O)c2)oc2cc(O)cc(O)c12 [Quercetin (dihydrate)] | – | 24.9
66 | CCCCCCCCCCCC1=C(O)C(=O)C=C(O)C1=O [Embelin] | 12.3 | –
